# Test results reported in PubChem BioAssay (NCATS).
# The inconclusive results got no clear call from the source; some entries with a clear call stand among them for comparison. Potencies of inconclusive entries are doubtful fits and often do not repeat. Active and inactive are the calls of the source. Unless noted, the call rests on the fitted dose curve; in most records, active means well fitted curve in the direction sought with a large enough effect; inconclusive means small, poorly fitted or top-dose-only effect, or another doubt; inactive means no such curve, though single readings can be large; an effect the other way counts as inactive or inconclusive.
# Experiments:
# [1] = Quantitative High-Throughput drug screen in 47 multiple myeloma cell lines against the NCATS MIPE library collection: UTMC2_PLB cell viability assay (AID 1919868); conditions: CellTiter-Glo ATP luminescence, 48 h; series mostly up to 45.8 µM; further: nearly all actives have a fitted effect of over 55% in size
# Summary of the method: (§1)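 MIPE 4.0 approved/investigational drugs; 500 cells/well; 48 h 37 °C humidified 5% CO2; CTG luminescence readout; DMSO = 100%, media = 0% viability.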
# [2] = Quantitative High-Throughput drug screen in 47 multiple myeloma cell lines against the NCATS MIPE library collection: KMS28BM_JCRB cell viability assay (AID 1919874); further: nearly all actives have a fitted effect of over 35% in size
# Summary of the method: as §1
# NIH3T3 = assay: Cytotoxic Profiling of Annotated Libraries Using Quantitative High-Throughput Screening (AID 1296008); conditions: Five cell lines viability, CellTiter-Glo ATP luminescence, 48-72 h; max response: hits give low values; further: nearly all actives have a fitted effect of over 60% in size
# Summary of the method: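 Compounds were pin-transferred onto cells and incubated 48 or 72 hr at 37 degree Celsius, 95% humidity. CellTiter-Glo was added, plates sat 10 min at room temperature, then ATP-coupled luminescence was imaged as the viability read-out.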
# [3] = Quantitative High-Throughput drug screen in 47 multiple myeloma cell lines against the NCATS MIPE library collection: RPMI8226_ATCC cell viability assay (AID 1919871); further: nearly all actives have a fitted effect of over 30% in size
# Summary of the method: as §1
# [4] = Quantitative High-Throughput drug screen in 47 multiple myeloma cell lines against the NCATS MIPE library collection: OPM2_DSMZ cell viability assay (AID 1919872); further: nearly all actives have a fitted effect of over 30% in size
# Summary of the method: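 Relative luminescence from CellTiter-Glo served as the viability signal, referenced to DMSO-treated (100%) and cell-free medium (0%) controls. Treatment lasted 48 hours at 37C with 500 cells per well.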
# [5] = Quantitative High-Throughput drug screen in 47 multiple myeloma cell lines against the NCATS MIPE library collection: KMS11_JCRBsus cell viability assay (AID 1919873); further: nearly all actives have a fitted effect of over 50% in size
# Summary of the method: as §1
# [6] = qHTS for identification of novel therapeutic agents for treatment of microphthalmiaassociated transcription factor (MiT) renal cell carcinoma (RCC) (AID 1963991; calls by dose curve); conditions: TFE3-RCC UOK109 viability, CellTiter-Glo, 48 h; active = Z-AUC below -0.8 in all three lines
# Summary of the method: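 Three TFE3-fusion RCC cell lines (UOK109, UOK124, UOK145), 500 cells/well, were exposed to the 1912-compound MIPE 4.0 library for 48 hours at 37 C. Viability was read by CellTiter-Glo luminescence, normalised to DMSO (100%) and empty wells (0%), with 11-concentration curve fits.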
# [7] = Quantitative High-Throughput drug screen in 47 multiple myeloma cell lines against the NCATS MIPE library collection: PE2_PLB cell viability assay (AID 1919869); further: nearly all actives have a fitted effect of over 35% in size
# Summary of the method: as §1
# [8] = Quantitative High-Throughput drug screen in 47 multiple myeloma cell lines against the NCATS MIPE library collection: PCM6_Riken cell viability assay (AID 1919870); conditions: CellTiter-Glo ATP, 48 h; series mostly up to 45.8 µM; further: nearly all actives have a fitted effect of over 30% in size
# Summary of the method: as §1
# Potency means the concentration at half of the fitted maximal effect.
SMILES,Potency [1],Potency [2],Potency (NIH3T3),Potency [3],Potency [4],Potency [5],Potency [6],Potency [7],Potency [8]
NC(=O)c1ncn([C@@H]2O[C@H](CO)[C@@H](O)[C@@H]2O)c1O,inactive,inactive,"inconclusive: 37.2 µM [inhibitor, single point]",,,,,,
N#CC(=Cc1ccc(O)c(O)c1)C(=O)NCc1ccccc1,"inconclusive: 5.26 µM [cytotoxic, partial curve, poor fit]","inconclusive: 37.2 µM [cytotoxic, single point]","inconclusive: 37.2 µM [inhibitor, single point]","inconclusive: 1.66 µM [cytotoxic, full curve, poor fit]",inactive,"inconclusive: 37.2 µM [cytotoxic, single point]","inconclusive: 18.7 µM [falling, partial curve]",,
COc1ccc(Nc2nccc(NCCO)n2)cc1,inactive,"inconclusive: 33.2 µM [cytotoxic, single point]",,"inconclusive: 0.0019 µM [rising, full curve]","inconclusive: 0.0074 µM [rising, full curve, poor fit]","inconclusive: 37.2 µM [cytotoxic, single point]",inconclusive: 0.00148 µM [full curve],"inconclusive: 41.8 µM [cytotoxic, single point]",
Cc1cccc(-c2[nH]c(C(C)(C)C)nc2-c2ccc3nccnc3c2)n1,active: 2.64 µM,"inconclusive: 11.8 µM [cytotoxic, full curve]","inconclusive: 3.72 µM [inhibitor, full curve]",,,"inconclusive: 14.8 µM [cytotoxic, partial curve]","inconclusive: 16.6 µM [falling, partial curve, poor fit]",,
CC[C@H](NC(=O)[C@H](C)NC)C(=O)N1C[C@@H](O)C[C@H]1Cc1c(-c2[nH]c3cc(F)ccc3c2C[C@H]2C[C@H](O)CN2C(=O)[C@H](CC)NC(=O)[C@H](C)NC)[nH]c2cc(F)ccc12,"inconclusive: 37.2 µM [cytotoxic, partial curve, poor fit]",inactive,,,"inconclusive: 0.003 µM [rising, full curve, poor fit]",,"inconclusive: 0.418 µM [falling, full curve]","inconclusive: 11.8 µM [cytotoxic, partial curve]",active: 5.9 µM
CC1CC2C3CCC4=CC(=O)C=C[C@]4(C)[C@@]3(F)[C@@H](O)C[C@]2(C)[C@@]1(O)C(=O)CO (stereo partly specified),"inconclusive: 0.0526 µM [cytotoxic, full curve, poor fit]",,,,,"inconclusive: 0.0743 µM [cytotoxic, full curve, poor fit]",,inactive,active: 0.118 µM
C[N+]1(C)[C@@H]2CC(OC(=O)[C@H](CO)c3ccccc3)C[C@H]1[C@H]1O[C@@H]12 (stereo partly specified),inactive,,,,,,,inconclusive: 0.001 µM,
COc1cc([C@H]2Oc3cc([C@H]4Oc5cc(O)cc(O)c5C(=O)[C@H]4O)ccc3O[C@H]2CO)ccc1O,"inconclusive: 0.235 µM [cytotoxic, full curve, poor fit]",,,"inconclusive: 16.6 µM [cytotoxic, partial curve]","inconclusive: 37.2 µM [cytotoxic, single point]",,"inconclusive: 18.7 µM [falling, partial curve, poor fit]","inconclusive: 16.6 µM [cytotoxic, partial curve]","inconclusive: 23.5 µM [cytotoxic, partial curve, poor fit]"
NC1=N[C@@]2(c3cc(NC(=O)c4ccc(F)cn4)ccc3F)COC[C@@H]2CS1,"inconclusive: 0.0019 µM [rising, full curve, poor fit]",,,inactive,"inconclusive: 37.2 µM [cytotoxic, single point]",active: 23.5 µM,"inconclusive: 4.69 µM [falling, partial curve]",active: 23.5 µM,
